Source: PubChem BioAssay AID485318 (Broad Institute, 2010)
In all, about 1,400 compounds went through this assay and fewer than 10 were called active.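 The calls were made as follows: active = fluorescence-lowering compounds whose fitted half-maximal concentration is at or below ten times the highest valid dose tested; inconclusive = flat curve at 30 to 70% inhibition, or poor fit; inactive = the rest.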 The list shows a part of the results.

Protein sequences, listed by entry. Tags and fused reporters are not part of them. Lines headed by an entry give the natural chain unless they say otherwise; changes in a name come on top.
UniProt O15379: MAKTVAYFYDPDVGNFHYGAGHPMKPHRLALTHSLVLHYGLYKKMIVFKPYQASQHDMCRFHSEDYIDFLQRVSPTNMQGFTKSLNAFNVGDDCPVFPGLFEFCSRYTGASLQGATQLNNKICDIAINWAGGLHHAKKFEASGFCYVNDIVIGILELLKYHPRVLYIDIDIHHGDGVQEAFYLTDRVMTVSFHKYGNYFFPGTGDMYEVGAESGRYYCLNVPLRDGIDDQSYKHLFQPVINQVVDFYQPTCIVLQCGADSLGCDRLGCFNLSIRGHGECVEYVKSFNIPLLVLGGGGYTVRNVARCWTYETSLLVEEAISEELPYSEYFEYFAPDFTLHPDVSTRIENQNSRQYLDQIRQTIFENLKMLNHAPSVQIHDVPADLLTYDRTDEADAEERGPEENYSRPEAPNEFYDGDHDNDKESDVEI

Target: Histone deacetylase 3 (Homo sapiens) (UniProt O15379)
Assay: inhibition of human HDAC3 enzymatic activity – biochemical, fluorescence, cherry-picked samples, counter-screen for JMJD2C/GASC1 demethylase inhibitor project, dose response (AID 485318);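 also: enzyme preincubated with compound before substrate and trypsin were added; 0% = neutral control wells and -100% = SAHA positive control wells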
Conditions: recombinant HDAC3, fluorogenic peptide/trypsin coupled; at 12 µM (top of the series)

Compound | activity change, negative = inhibition
O=c1c2c(nc3c(-c4cccc5ccccc45)c[nH]n13)CCC2 | inactive: -0.27%
CCSCC1COC(c2cccn2Cc2ccc(C)cc2)=N1 (stereo unspecified) | inactive: 0.82%
Fc1ccc(NC(=S)Nc2ccc(Cl)cc2Cl)cc1 | inactive: 0.249%
O=C(c1cc2ccccc2oc1=O)N1CCN(CCc2ccccc2)CC1 | inactive: -0.392%
NC(=O)C1CCN(c2nc(-c3ccc4c(c3)OCCO4)cs2)CC1 | inactive: 0.329%
N#Cc1cnn(CC2CCCCC2)c1N | inactive: 0.0338%
Cc1cccn2c(=O)c(C(=O)NC3CC(C)CC(C)(C)C3)c(O)nc12 (stereo unspecified) | inactive: -0.47%
N#Cc1cnc(NOCc2ccc(Cl)cc2)nc1 | inactive: -0.162%
CCNC(=S)NC(=NCc1cccnc1)Nc1nc(C)cc(C)n1 | inactive: 0.0784%
C=CCn1c(N)c(-c2nc3ccccc3n2C)sc1=S | inactive: 0.0537%
Cc1cc(C)cc(C(=O)N2CCC(C(N)=O)CC2)c1 | inactive: 0.719%
Cc1ccc(S(=O)(=O)N2CCN(C(=O)N3CCOCC3)CC2)cc1C | inactive: -0.219%
COCCn1c(N)c(C(=O)NCC2CCCO2)c2nc3ccccc3nc21 (stereo unspecified) | inactive: 0.0227%
COc1ccc(S(=O)(=O)N(C)C[C@H]2Oc3ccc(NS(=O)(=O)c4cccs4)cc3CC(=O)N([C@H](C)CO)C[C@H]2C)cc1 | inactive: 0.647%
Cc1cc(C(F)(F)F)nn1C(=O)c1cccnc1Cl | inactive: -0.181%
Nc1c(C(=O)OCC(=O)Nc2ccc(Cl)cc2[N+](=O)[O-])[nH]c(=O)[nH]c1=O | inactive: 0.0517%
CCC(=O)Nc1ccc(NC(=O)Cc2ccccc2)cn1 | inactive: 1.57%
O=C(Cn1cnc2c(OCc3ccccc3)ncnc21)NCCN1CCOCC1 | inactive: 0.597%
COc1ccc2[nH]c(=O)c(CN(CCCN(C)C)C(=O)Nc3ccc(F)cc3)cc2c1 | inactive: -0.145%

Compound | activity change, negative = inhibition
CN(C)/C=C1\C(=O)NN=C1c1ccccc1 | inactive: 0.113%
COc1ccc(-c2nc(C#N)c(NCc3ccc(F)cc3)o2)cc1OC | inactive: 0.641%
CC[C@@]1(C(=O)OC)N[C@H](CN(C)C(=O)Nc2ccc(Cl)cc2)[C@@H]2C(=O)N(Cc3ccccc3)C(=O)[C@@H]21 | inactive: -0.29%
C[C@H](CO)N1C[C@H](C)[C@@H](CN(C)C(=O)Nc2ccc(C(F)(F)F)cc2)Oc2c(NC(=O)Nc3ccc4c(c3)OCO4)cccc2C1=O | inactive: 1.11%
COc1ccc(NC(=O)C2CCCCN2N)cc1OCC(C)C (stereo unspecified) | inactive: 0.00657%
CC(=O)Nc1ccc2nc(CN3CCC(CO)(CCc4ccccc4)CC3)ccc2c1 | inactive: 0.293%
COc1ccccc1CNC(=O)c1cc(-c2ccccc2)nn1CC1CC(c2cccnc2)=NO1 (stereo unspecified) | inactive: -0.0458%
Cc1cccc(N2C(=O)C3C4C=CC(C4)C3C2=O)c1 (stereo unspecified) | inactive: -0.408%
O=c1cc2oc3cc(O)c(O)cc3c(-c3ccccc3[N+](=O)[O-])c-2cc1O | inactive: -0.962%
O=C(CSc1nc2ccccc2c(=O)n1Cc1ccc(C(=O)NC2CC2)cc1)NCc1ccco1 | inactive: 0.873%
CN(C)CCN(C(=O)/C=C/c1cccs1)c1nc2ccc(F)cc2s1 | inactive: -0.147%
CCn1c(SCC(=O)c2ccc(C)cc2)nnc1-c1ccoc1C | inactive: -0.314%
O=C(Nc1ccccc1N1CCCCC1)c1cccc(F)c1 | inactive: 0.346%
CCCCC(=O)Nc1ccccc1N1CCN(c2ccc(F)cc2)CC1 | inactive: -0.278%
CCn1c(=O)c(C(=O)NCCc2ccc(Cl)cc2)c(O)c2ccccc21 | inactive: -0.119%
CCOc1ccc(NC(=O)NC(=O)N(C(C)C)S(C)(=O)=O)cc1 | inactive: 0.676%
CCO[C@@H]1OC(C(=O)NC2CC2)=C[C@H](c2c[nH]c3ccccc23)[C@H]1CCCO | inactive: -0.482%
CCCN(C(=O)Cc1ccc(S(=O)(=O)N2CCOCC2)s1)c1c(N)n(Cc2ccccc2)c(=O)[nH]c1=O | inactive: -0.39%
CCOc1ccc(NC(=O)CN(C)CC(=O)Nc2cc(Cl)ccc2C#N)cc1OCC | inactive: -0.412%

Compound | activity change, negative = inhibition
O=C(Nc1nncs1)c1ccc2c(c1)OCO2 | inactive: 0.282%
COc1ccc(C(=O)NC2CC3CCCC(C2)N3Cc2ccccc2)cc1 (stereo unspecified) | inactive: 0.361%
COc1ccc2c(C(=O)NCCCCO)c(-c3ccc(S(C)(=O)=O)cc3)sc2c1 | inactive: 0.45%
CC(CN1CCCC1)OC(=O)COc1ccccc1 (stereo unspecified) | inactive: -0.195%
CCOC(=O)c1c(NC(=O)C2CCCO2)sc2c1CCC2 (stereo unspecified) | inactive: -0.418%
N=c1n(CC(=O)c2cccc([N+](=O)[O-])c2)c2ccccc2n1Cc1ccccc1 | inactive: 0.394%
O=C(C1CCN(S(=O)(=O)c2ccc3ccccc3c2)CC1)N1CCN(c2ncccn2)CC1 | inactive: 0.874%
CCN(Cc1cc2cc(OC)ccc2[nH]c1=O)C(=O)c1ccncc1 | inactive: 0.128%
COCCn1c(SCC(=O)Nc2cc(C(C)(C)C)nn2-c2ccccc2)nc2ccccc2c1=O | inactive: 0.716%
CCN(C[C@H]1N[C@@](Cc2ccccc2)(C(=O)OC)[C@H]2C(=O)N(C)C(=O)[C@@H]12)S(=O)(=O)c1ccccc1 | inactive: -0.222%
COc1ccc(S(=O)(=O)N2CCC(C(=O)N3CCc4ccccc4C3)CC2)cc1 | inactive: 0.11%
CC(=O)Nc1sc2c(c1CN1CCN(C)CC1)CCCC2 | inactive: -0.176%
COCCCNC(=O)CC1C[C@H](C(=O)N2CCOCC2)[C@@]2(C)c3[nH]c4ccccc4c3CCN2C1=O (stereo partly specified) | inactive: 0.685%
COC(=O)C(Cc1ccccc1)NC(=O)COc1ccc(C(C)(C)C)cc1 (stereo unspecified) | inactive: 0.169%
Oc1ccc(/C=N/Nc2ncc(Br)cn2)c(O)c1 | inactive: -0.276%
CC1Oc2ccccc2N(Cc2ccccc2Cl)C1=O (stereo unspecified) | inactive: 0.423%
CC1C(=O)N(Cc2ccc([N+](=O)[O-])cc2)c2ccccc2N1C(=O)C1CC1 (stereo unspecified) | inactive: 0.00355%
Cc1nnc(SCc2nc3ccccc3[nH]2)s1 | inactive: -0.52%

Look-ups from the results shown.
Entry of CC1C(=O)N(Cc2ccc([N+](=O)[O-])cc2)c2ccccc2N1C(=O)C1CC1 (stereo unspecified) under activity change, negative = inhibition: inactive: 0.00355%
Entry of COC(=O)C(Cc1ccccc1)NC(=O)COc1ccc(C(C)(C)C)cc1 (stereo unspecified) under activity change, negative = inhibition: inactive: 0.169%
